Measurements taken from BigSolDB 2.1.

COc1ccc2cc([C@H](C)C(=O)O)ccc2c1
Details	solubility (mole fraction)
in acetone, 278.25 K	0.000946
in acetone, 283.6 K	0.00137
in acetone, 288.3 K	0.00164
in acetone, 293.05 K	0.00216
in acetone, 298.45 K	0.00281
in acetone, 303.2 K	0.00362
in acetone, 308.7 K	0.00459
in acetone, 313.45 K	0.00592
in acetone, 318.1 K	0.00721
in acetone, 320.15 K	0.0084
in ethanol, 278.15 K	0.00487
in ethanol, 283.7 K	0.00607
in ethanol, 288.15 K	0.00757
in ethanol, 293.1 K	0.00923
in ethanol, 298.5 K	0.0118
in ethanol, 303.25 K	0.0143
in ethanol, 308.65 K	0.0172
in ethanol, 313.4 K	0.0212
in ethanol, 318.8 K	0.0246
in ethanol, 320.15 K	0.0279
in ethyl acetate, 278.2 K	0.0145
in ethyl acetate, 283.45 K	0.0172
in ethyl acetate, 288.15 K	0.0196
in ethyl acetate, 293.1 K	0.0229
in ethyl acetate, 298.5 K	0.0271
in ethyl acetate, 303.25 K	0.0307
in ethyl acetate, 308.65 K	0.036
in ethyl acetate, 313.7 K	0.0415
in ethyl acetate, 318.7 K	0.0476
in ethyl acetate, 320.1 K	0.0499
in isopropanol, 278.15 K	0.00523
in isopropanol, 283.6 K	0.00664
in isopropanol, 288.35 K	0.00803
in isopropanol, 293.75 K	0.00975
in isopropanol, 298.5 K	0.0118
in isopropanol, 303.25 K	0.0143
in isopropanol, 308.65 K	0.0177
in isopropanol, 313.4 K	0.0212
in isopropanol, 318.8 K	0.0259
in isopropanol, 320.15 K	0.0272
in methanol, 278.2 K	0.00612
in methanol, 283.6 K	0.00729
in methanol, 288.15 K	0.00875
in methanol, 293.1 K	0.0105
in methanol, 298.15 K	0.0126
in methanol, 303.9 K	0.0154
in methanol, 308.65 K	0.0184
in methanol, 313.4 K	0.0216
in methanol, 318.8 K	0.0255
in methanol, 320.15 K	0.0273
